Assay results published in the supplement of paper PMC6411743.
± gives the standard deviation of the averaged measurements. The list shows a part of the results.

Sequences of proteins named here, by UniProt entry; tags and fusion partners are left off. A change or cut given only in a name is not applied to a line headed by its entry.
UniProt Q17RN3: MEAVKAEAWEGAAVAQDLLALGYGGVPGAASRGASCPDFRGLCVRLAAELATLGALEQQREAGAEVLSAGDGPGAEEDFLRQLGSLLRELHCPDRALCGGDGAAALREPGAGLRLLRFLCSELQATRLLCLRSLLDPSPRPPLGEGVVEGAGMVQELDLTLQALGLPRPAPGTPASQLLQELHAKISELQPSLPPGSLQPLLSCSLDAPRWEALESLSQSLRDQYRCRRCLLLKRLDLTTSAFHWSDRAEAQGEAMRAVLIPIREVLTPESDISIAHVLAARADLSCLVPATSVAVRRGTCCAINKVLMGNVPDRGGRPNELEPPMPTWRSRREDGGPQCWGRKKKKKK
UniProt Q53ET0: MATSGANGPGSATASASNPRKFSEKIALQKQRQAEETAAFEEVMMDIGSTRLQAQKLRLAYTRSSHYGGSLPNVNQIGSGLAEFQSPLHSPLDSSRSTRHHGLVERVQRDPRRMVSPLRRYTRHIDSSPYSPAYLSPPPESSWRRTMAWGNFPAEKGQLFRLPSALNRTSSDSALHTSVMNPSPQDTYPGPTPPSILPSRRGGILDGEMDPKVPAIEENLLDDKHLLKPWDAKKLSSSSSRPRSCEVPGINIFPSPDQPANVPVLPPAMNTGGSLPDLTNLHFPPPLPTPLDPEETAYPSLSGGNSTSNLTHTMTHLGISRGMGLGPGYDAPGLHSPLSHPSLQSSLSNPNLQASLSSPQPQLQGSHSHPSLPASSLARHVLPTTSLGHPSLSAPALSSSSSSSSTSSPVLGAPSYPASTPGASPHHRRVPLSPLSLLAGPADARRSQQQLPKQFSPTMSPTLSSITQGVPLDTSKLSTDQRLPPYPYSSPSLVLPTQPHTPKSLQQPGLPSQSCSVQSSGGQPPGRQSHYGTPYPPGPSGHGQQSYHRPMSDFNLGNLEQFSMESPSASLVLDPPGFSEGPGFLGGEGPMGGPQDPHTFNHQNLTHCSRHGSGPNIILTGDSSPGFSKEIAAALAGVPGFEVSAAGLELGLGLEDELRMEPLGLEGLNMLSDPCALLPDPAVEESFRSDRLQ
UniProt Q15762: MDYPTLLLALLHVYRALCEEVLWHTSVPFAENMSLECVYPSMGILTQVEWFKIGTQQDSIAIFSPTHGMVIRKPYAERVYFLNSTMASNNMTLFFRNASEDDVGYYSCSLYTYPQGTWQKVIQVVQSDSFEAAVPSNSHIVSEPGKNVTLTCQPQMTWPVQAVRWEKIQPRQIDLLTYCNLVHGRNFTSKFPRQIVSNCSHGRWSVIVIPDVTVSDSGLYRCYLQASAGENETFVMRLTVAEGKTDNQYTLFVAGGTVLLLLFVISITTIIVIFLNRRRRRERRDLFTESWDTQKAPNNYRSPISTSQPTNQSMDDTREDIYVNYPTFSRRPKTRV
UniProt Q15046, whole entry, looked up: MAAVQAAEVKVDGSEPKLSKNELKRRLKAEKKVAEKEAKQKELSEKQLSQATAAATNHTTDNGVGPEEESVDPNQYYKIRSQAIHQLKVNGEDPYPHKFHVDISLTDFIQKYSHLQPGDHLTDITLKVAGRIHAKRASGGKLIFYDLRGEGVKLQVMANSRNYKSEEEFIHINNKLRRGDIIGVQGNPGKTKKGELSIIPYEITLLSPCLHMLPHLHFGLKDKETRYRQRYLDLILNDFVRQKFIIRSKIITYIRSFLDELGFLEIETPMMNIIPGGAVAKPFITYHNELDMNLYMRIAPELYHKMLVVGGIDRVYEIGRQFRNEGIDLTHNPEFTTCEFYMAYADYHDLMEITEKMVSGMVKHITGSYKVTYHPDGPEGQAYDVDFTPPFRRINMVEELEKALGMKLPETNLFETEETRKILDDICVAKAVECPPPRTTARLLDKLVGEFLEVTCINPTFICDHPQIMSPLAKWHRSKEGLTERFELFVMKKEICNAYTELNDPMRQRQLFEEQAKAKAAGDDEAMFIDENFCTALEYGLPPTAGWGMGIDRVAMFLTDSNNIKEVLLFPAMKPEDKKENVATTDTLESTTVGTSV
UniProt Q5JTJ3: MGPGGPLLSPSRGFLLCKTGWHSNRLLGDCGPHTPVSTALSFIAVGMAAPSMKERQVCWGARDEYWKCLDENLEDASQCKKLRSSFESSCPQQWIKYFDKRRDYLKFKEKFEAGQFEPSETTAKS
UniProt Q5JTZ9, whole entry: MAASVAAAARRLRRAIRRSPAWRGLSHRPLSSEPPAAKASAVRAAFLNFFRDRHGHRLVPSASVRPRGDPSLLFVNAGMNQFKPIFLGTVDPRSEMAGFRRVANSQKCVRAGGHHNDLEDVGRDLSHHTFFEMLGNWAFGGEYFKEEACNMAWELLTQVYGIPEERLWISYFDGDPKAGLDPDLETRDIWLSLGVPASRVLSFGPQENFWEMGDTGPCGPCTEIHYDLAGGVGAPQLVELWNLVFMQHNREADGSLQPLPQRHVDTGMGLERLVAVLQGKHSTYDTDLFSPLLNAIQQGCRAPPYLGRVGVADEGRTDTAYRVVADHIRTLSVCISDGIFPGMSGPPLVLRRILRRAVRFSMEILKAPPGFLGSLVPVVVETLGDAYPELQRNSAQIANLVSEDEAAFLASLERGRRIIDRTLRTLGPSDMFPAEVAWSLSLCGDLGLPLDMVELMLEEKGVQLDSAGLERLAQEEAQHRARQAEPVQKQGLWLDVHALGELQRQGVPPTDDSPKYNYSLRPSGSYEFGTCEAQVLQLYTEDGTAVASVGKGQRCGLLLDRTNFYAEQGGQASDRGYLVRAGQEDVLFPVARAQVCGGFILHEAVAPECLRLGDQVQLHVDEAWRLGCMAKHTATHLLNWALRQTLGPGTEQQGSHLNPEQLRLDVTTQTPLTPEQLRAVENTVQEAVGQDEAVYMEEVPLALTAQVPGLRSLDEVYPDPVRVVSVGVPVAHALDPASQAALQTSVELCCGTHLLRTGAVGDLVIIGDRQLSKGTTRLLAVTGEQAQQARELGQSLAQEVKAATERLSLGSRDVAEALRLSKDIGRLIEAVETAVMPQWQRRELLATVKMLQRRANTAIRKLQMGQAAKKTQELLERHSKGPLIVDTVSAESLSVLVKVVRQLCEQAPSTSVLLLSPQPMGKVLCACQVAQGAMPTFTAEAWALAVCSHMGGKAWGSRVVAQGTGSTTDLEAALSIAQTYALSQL
UniProt Q53H82: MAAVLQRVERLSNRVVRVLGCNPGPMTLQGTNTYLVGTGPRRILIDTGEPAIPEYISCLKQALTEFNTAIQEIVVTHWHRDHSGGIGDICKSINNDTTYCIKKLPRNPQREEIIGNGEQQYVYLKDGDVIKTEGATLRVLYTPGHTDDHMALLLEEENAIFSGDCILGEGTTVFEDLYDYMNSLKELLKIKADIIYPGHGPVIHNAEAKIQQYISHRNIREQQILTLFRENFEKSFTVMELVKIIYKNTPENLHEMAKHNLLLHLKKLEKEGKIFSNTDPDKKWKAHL
UniProt Q5F1R6: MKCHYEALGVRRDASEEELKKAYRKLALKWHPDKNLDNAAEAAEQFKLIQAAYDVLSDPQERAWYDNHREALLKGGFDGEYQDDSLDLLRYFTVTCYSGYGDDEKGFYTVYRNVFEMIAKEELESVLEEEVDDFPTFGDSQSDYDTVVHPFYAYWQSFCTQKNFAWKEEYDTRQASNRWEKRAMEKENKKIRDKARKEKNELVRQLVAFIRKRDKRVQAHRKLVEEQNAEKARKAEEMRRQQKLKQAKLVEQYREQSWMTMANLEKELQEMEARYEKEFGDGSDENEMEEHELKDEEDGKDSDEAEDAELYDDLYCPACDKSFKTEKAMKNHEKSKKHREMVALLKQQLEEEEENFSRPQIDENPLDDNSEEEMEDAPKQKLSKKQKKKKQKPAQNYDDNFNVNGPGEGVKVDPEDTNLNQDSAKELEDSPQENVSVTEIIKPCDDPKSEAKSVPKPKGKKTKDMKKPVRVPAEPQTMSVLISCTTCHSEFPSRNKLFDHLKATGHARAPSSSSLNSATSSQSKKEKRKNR
UniProt Q15102: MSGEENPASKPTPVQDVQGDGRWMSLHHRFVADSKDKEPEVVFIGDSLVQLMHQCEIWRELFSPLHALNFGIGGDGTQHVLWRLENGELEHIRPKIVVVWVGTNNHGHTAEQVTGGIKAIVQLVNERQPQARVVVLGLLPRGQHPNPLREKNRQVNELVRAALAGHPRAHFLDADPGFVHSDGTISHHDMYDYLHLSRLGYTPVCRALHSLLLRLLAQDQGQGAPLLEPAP
UniProt Q5SSJ5: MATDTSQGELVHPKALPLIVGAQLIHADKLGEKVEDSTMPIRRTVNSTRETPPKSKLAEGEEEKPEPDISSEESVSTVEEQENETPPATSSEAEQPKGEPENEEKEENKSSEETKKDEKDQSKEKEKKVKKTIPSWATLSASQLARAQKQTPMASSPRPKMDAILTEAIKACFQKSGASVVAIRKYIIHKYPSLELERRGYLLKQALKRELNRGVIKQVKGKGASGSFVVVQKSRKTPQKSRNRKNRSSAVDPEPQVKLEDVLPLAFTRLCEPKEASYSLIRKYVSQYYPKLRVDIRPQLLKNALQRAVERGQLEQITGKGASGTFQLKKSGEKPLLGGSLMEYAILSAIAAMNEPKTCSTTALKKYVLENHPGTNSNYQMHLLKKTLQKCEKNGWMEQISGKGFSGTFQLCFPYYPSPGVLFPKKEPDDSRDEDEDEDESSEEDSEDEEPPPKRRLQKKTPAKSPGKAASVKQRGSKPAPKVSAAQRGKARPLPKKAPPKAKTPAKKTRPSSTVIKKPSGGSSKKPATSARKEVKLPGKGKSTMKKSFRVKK
UniProt Q15126: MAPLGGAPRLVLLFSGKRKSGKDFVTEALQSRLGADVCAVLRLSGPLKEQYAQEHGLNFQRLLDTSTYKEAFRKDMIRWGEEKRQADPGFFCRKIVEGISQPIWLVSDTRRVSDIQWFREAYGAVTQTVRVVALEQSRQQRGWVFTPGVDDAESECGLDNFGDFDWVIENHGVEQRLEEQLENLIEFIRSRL
UniProt Q3B7T1: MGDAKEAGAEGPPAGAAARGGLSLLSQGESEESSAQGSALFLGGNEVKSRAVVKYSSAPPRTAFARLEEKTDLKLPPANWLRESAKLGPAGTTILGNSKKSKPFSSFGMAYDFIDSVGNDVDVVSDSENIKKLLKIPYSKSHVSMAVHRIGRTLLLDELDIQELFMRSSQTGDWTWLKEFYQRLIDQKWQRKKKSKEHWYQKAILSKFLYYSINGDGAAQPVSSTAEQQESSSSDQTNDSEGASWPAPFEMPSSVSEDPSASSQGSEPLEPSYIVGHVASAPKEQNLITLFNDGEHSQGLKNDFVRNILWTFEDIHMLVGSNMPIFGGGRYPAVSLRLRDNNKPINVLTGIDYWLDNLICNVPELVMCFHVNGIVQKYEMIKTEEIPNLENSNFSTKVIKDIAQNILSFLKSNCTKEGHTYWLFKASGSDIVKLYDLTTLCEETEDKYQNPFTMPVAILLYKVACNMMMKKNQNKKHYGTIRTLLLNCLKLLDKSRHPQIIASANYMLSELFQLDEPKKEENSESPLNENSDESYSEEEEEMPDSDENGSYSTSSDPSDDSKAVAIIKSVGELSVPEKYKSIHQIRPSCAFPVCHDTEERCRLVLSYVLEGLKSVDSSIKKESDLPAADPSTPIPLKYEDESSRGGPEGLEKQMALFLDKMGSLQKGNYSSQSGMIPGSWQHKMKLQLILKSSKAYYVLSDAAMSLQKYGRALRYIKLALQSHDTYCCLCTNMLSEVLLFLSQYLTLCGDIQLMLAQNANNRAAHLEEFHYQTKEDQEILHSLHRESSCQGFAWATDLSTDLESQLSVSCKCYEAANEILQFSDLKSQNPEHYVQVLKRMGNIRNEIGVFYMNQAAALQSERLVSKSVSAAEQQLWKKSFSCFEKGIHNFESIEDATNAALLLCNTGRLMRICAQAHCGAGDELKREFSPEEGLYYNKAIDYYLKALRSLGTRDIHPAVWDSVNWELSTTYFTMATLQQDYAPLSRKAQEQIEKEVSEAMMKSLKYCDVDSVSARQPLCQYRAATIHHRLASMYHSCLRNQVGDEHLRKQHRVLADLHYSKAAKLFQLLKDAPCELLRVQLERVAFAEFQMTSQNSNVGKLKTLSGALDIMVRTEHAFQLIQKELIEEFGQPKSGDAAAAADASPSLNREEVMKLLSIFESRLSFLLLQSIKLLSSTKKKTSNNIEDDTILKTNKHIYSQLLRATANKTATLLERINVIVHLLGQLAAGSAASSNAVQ
UniProt Q16204: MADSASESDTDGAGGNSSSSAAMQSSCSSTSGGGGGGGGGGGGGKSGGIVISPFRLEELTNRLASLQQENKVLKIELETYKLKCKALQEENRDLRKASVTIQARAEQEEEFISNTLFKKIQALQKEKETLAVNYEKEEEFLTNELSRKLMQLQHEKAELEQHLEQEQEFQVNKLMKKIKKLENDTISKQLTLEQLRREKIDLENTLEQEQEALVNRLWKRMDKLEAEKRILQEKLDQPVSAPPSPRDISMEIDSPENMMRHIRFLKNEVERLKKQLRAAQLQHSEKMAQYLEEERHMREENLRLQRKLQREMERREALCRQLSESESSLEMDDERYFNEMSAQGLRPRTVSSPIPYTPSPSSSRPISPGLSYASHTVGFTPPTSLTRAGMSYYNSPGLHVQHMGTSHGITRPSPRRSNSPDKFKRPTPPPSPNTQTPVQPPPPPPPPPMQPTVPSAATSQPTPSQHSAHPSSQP

Compound: Nc1nc2c(ncn2[C@@H]2O[C@H](COP(=O)(O)OP(=O)(O)OP(=O)(O)O)[C@@H](O)[C@H]2O)c(=O)[nH]1 [guanosine triphosphate]
Test: NP40-soluble protein abundance relative to vehicle (solubility fold change) (ratio); higher = more soluble protein in presence of GTP
Method in brief: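 Each value is a fold change relative to the detergent-processed vehicle, calculated per replicate from vsn-normalised intensities. Jurkat crude lysate received eight concentrations (0.1 to 10 mM) for 10 min at room temperature and 3 min at 37 °C, then was solubilised in 0.8% NP40 with benzonase (60 min, 4 °C). The ultracentrifuged supernatant was TMT-labelled and run by LC-MS/MS in three independent experiments.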

Row | Target | NP40-soluble protein abundance (concentration: 0.1mM) | NP40-soluble protein abundance (concentration: 0.5mM) | NP40-soluble protein abundance (concentration: 1mM) | NP40-soluble protein abundance (concentration: 2mM) | NP40-soluble protein abundance (concentration: 4mM) | NP40-soluble protein abundance (concentration: 6mM) | NP40-soluble protein abundance (concentration: 8mM) | NP40-soluble protein abundance (concentration: 10mM)
1 | UniProt Q17RN3 and related entries | 1.1 ± 0.026 | 1.04 ± 0.027 | 0.967 ± 0.011 | 1.07 ± 0.054 | 1.04 ± 0.075 | 0.9845 ± 0.0052 | 0.974 ± 0.051 | 0.991 ± 0.037
2 | CRTC2 (UniProt Q53ET0) | 1.06 ± 0.14 | 1.04 ± 0.15 | 1.11 ± 0.08 | 1.103 ± 0.0038 | 1.03 ± 0.098 | 1.02 ± 0.12 | 1.12 ± 0.097 | 1.15 ± 0.24
3 | Q5STZ8 and related entries (UniProt Q8NE71) | 1.03 ± 0.023 | 1.02 ± 0.019 | 0.96 ± 0.053 | 0.987 ± 0.043 | 0.993 ± 0.06 | 0.997 ± 0.046 | 0.994 ± 0.066 | 0.984 ± 0.092
4 | UniProt Q4VC05 and related entries | 1.03 ± 0.12 | 1.29 ± 0.32 | 1.37 ± 0.13 | 1.38 ± 0.18 | 1.29 ± 0.22 | 1.4 ± 0.033 | 1.44 ± 0.058 | 1.61 ± 0.44
5 | CD226 (UniProt Q15762) | 1.06 ± 0.19 | 0.985 ± 0.18 | 1 ± 0.19 | 0.946 ± 0.17 | 0.989 ± 0.17 | 0.959 ± 0.19 | 0.876 ± 0.15 | 1.01 ± 0.17
6 | UniProt Q3ZCQ8 and related entries | 0.965 ± 0.02 | 0.962 ± 0.058 | 0.945 ± 0.014 | 0.911 ± 0.052 | 0.911 ± 0.047 | 0.915 ± 0.048 | 0.913 ± 0.0096 | 0.902 ± 0.067
7 | UniProt Q15046 | 1.02 ± 0.054 | 1.11 ± 0.11 | 1.07 ± 0.14 | 1.15 ± 0.19 | 1.16 ± 0.2 | 1.2 ± 0.24 | 1.17 ± 0.21 | 1.11 ± 0.22
8 | HSD17B12 (UniProt Q53GQ0) | 0.955 ± 0.068 | 1.02 ± 0.075 | 0.879 ± 0.028 | 0.928 ± 0.074 | 0.855 ± 0.075 | 0.926 ± 0.083 | 0.826 ± 0.048 | 0.87 ± 0.067
9 | UniProt Q5JTJ3 and related entries | 0.93 ± 0.04 | 0.986 ± 0.089 | 1.03 ± 0.098 | 0.988 ± 0.15 | 0.96 ± 0.083 | 0.977 ± 0.11 | 1 ± 0.054 | 1.13 ± 0.094
10 | AARS2 (UniProt Q5JTZ9) | 1.13 ± 0.043 | 1.02 ± 0.046 | 0.989 ± 0.052 | 0.998 ± 0.059 | 0.98 ± 0.06 | 0.948 ± 0.04 | 0.925 ± 0.03 | 0.925 ± 0.045
11 | LACTB2 (UniProt Q53H82) | 1.05 ± 0.02 | 1.02 ± 0.042 | 0.978 ± 0.075 | 0.955 ± 0.069 | 0.948 ± 0.052 | 0.933 ± 0.095 | 0.978 ± 0.052 | 0.91 ± 0.095
12 | UniProt Q15032-2 | 1.05 ± 0.12 | 0.952 ± 0.083 | 1.05 ± 0.072 | 1.02 ± 0.13 | 1.09 ± 0.096 | 0.978 ± 0.12 | 1.1401 ± 0.00067 | 1.02 ± 0.078
13 | UniProt Q3V6T2 and related entries | 1.03 ± 0.034 | 1.02 ± 0.071 | 1.03 ± 0.058 | 1.02 ± 0.06 | 1.01 ± 0.046 | 0.988 ± 0.063 | 1.01 ± 0.099 | 0.997 ± 0.057
14 | UniProt Q5F1R6 and related entries | 0.975 ± 0.037 | 0.974 ± 0.051 | 1.03 ± 0.044 | 1.06 ± 0.062 | 1.08 ± 0.073 | 1.1 ± 0.09 | 1.21 ± 0.081 | 1.2 ± 0.15
15 | PAFAH1B3 (UniProt Q15102) | 0.938 ± 0.072 | 0.934 ± 0.064 | 0.862 ± 0.011 | 0.897 ± 0.059 | 0.866 ± 0.026 | 0.862 ± 0.027 | 0.779 ± 0.061 | 0.832 ± 0.079
16 | UniProt Q53EL6 and related entries | 0.992 ± 0.14 | 1.08 ± 0.18 | 1.12 ± 0.24 | 1.23 ± 0.34 | 1.45 ± 0.45 | 1.66 ± 0.47 | 1.81 ± 0.48 | 2.16 ± 0.58
17 | HP1BP3 (UniProt Q5SSJ5) | 1.02 ± 0.079 | 0.97 ± 0.034 | 1.03 ± 0.041 | 1.11 ± 0.086 | 1.23 ± 0.061 | 1.26 ± 0.058 | 1.33 ± 0.1 | 1.54 ± 0.14
18 | MANEA (UniProt Q5SRI9) | 1 ± 0.081 | 0.987 ± 0.067 | 0.951 ± 0.06 | 1.01 ± 0.075 | 0.976 ± 0.09 | 0.915 ± 0.06 | 0.913 ± 0.087 | 0.948 ± 0.056
19 | PMVK (UniProt Q15126) | 0.969 ± 0.043 | 0.919 ± 0.022 | 0.921 ± 0.047 | 0.89 ± 0.0092 | 0.893 ± 0.053 | 0.885 ± 0.036 | 0.85 ± 0.07 | 0.846 ± 0.061
20 | UniProt Q16555 and related entries | 0.98 ± 0.043 | 0.983 ± 0.031 | 0.973 ± 0.029 | 0.955 ± 0.035 | 0.966 ± 0.039 | 0.957 ± 0.025 | 0.97 ± 0.041 | 0.92 ± 0.034
21 | UniProt Q15424 and related entries | 0.958 ± 0.048 | 0.938 ± 0.052 | 1.04 ± 0.039 | 1.09 ± 0.081 | 1.19 ± 0.066 | 1.25 ± 0.041 | 1.38 ± 0.083 | 1.44 ± 0.083
22 | UniProt Q3B7T1 and related entries | 1.1 ± 0.089 | 1.07 ± 0.055 | 1.05 ± 0.045 | 1.09 ± 0.041 | 1.05 ± 0.028 | 1.03 ± 0.043 | 1.09 ± 0.023 | 1.08 ± 0.049
23 | LASP1 (UniProt Q14847) | 0.911 ± 0.051 | 0.899 ± 0.06 | 0.922 ± 0.088 | 0.849 ± 0.12 | 0.852 ± 0.1 | 0.852 ± 0.1 | 0.879 ± 0.076 | 0.856 ± 0.1
24 | NONO (UniProt Q15233) | 1.01 ± 0.054 | 1.01 ± 0.056 | 1.02 ± 0.11 | 1.12 ± 0.12 | 1.34 ± 0.16 | 1.51 ± 0.16 | 1.58 ± 0.15 | 1.55 ± 0.2
25 | CCDC6 (UniProt Q16204) | 0.881 ± 0.034 | 0.87 ± 0.021 | 0.971 ± 0.026 | 0.961 ± 0.025 | 0.911 ± 0.019 | 0.911 ± 0.043 | 0.913 ± 0.019 | 0.99 ± 0.07
26 | TWISTNB (UniProt Q3B726) | 1.03 ± 0.072 | 1.08 ± 0.06 | 1.08 ± 0.12 | 1.16 ± 0.04 | 1.15 ± 0.095 | 1.23 ± 0.11 | 1.35 ± 0.13 | 1.29 ± 0.13
27 | UniProt Q17R31 and related entries | 0.987 ± 0.038 | 0.976 ± 0.038 | 1.02 ± 0.046 | 1.01 ± 0.02 | 0.991 ± 0.068 | 1 ± 0.058 | 1 ± 0.054 | 0.973 ± 0.085

Individual results from the entries so far:
NP40-soluble protein abundance (concentration: 0.5mM) with UniProt Q15046 is entered as 1.11 ± 0.11
NP40-soluble protein abundance (concentration: 2mM) with PAFAH1B3 (UniProt Q15102) is entered as 0.897 ± 0.059
